Measured values taken from article PMC5105131.
No constants are given. Whether binding was seen depends on the method and setting. In cells and extracts the contact can be indirect. Here binding means that the protein was enriched with, or labelled near, the bait; the list need not be complete.

By UniProt entry, the sequences of proteins in these tests, tags left out.
UniProt P01106: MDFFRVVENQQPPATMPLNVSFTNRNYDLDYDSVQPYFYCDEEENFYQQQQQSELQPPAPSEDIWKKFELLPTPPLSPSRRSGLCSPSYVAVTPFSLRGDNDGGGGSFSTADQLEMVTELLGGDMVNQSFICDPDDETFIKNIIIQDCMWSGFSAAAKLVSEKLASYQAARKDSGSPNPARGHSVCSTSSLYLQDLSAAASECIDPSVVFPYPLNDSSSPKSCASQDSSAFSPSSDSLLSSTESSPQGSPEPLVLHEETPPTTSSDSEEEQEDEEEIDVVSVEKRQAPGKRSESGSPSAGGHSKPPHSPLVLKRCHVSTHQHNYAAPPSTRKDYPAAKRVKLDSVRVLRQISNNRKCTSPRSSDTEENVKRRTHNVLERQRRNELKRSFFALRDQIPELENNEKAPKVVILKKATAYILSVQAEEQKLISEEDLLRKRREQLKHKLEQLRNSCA
UniProt Q8IUF8: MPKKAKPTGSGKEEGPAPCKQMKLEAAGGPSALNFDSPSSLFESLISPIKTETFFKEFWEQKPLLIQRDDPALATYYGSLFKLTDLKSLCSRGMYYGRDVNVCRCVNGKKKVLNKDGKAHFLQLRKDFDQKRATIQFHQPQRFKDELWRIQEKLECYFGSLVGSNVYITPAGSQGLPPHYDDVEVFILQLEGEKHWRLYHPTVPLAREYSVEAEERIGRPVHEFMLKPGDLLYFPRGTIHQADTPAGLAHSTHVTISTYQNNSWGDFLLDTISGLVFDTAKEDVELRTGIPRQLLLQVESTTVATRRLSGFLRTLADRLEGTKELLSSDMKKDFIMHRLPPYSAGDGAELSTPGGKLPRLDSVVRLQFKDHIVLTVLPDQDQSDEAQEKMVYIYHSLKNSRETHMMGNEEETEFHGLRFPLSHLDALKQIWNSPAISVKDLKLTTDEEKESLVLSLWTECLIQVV
UniProt Q92878: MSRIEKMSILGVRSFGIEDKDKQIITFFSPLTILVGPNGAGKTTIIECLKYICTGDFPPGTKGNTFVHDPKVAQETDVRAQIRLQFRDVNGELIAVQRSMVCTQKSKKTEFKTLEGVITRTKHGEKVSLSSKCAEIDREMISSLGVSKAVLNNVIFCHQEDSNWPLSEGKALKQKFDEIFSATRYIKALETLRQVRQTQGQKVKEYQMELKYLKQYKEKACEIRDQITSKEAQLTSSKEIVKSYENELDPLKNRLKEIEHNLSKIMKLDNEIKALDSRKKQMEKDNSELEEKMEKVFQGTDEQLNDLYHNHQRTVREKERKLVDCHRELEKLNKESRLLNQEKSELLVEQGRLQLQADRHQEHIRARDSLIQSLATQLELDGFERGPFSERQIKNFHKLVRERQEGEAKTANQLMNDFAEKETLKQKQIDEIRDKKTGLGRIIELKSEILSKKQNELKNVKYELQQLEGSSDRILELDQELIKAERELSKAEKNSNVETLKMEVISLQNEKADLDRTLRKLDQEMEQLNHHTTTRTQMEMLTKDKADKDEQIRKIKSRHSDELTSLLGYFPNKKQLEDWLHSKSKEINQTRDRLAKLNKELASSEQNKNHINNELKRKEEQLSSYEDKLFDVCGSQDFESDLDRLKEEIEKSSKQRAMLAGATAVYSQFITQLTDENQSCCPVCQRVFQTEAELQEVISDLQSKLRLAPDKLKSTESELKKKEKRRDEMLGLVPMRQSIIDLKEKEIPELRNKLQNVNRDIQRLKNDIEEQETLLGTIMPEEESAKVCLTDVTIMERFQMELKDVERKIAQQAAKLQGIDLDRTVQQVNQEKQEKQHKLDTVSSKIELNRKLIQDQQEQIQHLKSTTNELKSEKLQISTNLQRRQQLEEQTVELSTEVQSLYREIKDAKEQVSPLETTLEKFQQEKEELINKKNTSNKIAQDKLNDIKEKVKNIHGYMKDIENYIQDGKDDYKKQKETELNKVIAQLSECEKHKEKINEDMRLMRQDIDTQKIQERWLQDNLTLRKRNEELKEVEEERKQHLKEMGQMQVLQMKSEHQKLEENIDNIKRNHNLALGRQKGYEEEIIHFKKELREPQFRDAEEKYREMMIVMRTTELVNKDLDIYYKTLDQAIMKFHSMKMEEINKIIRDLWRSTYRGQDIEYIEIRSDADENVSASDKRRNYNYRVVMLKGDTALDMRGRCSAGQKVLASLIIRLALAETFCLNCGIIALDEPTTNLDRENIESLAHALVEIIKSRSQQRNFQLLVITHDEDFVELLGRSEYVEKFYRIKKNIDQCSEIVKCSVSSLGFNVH
UniProt P13010: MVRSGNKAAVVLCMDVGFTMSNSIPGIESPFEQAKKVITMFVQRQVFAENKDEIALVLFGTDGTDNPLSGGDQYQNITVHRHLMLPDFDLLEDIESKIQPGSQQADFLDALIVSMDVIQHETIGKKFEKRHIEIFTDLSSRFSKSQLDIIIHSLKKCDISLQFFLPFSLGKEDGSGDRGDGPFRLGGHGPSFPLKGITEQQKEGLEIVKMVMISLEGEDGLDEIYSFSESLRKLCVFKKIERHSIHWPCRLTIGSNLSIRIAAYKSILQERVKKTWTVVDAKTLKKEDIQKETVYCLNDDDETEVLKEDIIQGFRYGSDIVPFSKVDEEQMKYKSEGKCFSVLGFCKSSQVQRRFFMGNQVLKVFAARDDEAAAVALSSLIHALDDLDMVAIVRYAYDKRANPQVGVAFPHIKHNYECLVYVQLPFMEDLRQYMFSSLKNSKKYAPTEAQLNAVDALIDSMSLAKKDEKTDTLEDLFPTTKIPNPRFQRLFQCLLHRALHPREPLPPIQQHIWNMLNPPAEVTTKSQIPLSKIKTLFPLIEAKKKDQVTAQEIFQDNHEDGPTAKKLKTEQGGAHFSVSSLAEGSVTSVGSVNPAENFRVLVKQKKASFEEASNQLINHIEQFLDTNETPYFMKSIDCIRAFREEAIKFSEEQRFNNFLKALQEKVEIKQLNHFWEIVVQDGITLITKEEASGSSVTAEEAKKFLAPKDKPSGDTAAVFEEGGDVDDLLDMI
UniProt P12956: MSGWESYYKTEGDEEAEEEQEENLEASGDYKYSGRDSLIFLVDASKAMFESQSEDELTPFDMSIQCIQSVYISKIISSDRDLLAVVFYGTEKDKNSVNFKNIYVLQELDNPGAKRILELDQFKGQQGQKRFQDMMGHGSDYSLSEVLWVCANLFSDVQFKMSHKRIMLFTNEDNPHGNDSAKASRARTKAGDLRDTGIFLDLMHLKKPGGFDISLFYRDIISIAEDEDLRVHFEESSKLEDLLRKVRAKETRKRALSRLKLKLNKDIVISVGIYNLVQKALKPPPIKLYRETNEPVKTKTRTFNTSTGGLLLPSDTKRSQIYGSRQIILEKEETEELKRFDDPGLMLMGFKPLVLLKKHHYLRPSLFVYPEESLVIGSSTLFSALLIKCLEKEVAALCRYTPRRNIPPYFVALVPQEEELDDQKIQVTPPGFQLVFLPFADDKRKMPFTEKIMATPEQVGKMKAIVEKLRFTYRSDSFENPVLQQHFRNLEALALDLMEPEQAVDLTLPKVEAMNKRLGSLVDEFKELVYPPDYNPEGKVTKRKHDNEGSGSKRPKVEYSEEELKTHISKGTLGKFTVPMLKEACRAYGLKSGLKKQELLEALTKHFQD

Key:
[1] = biological target: c-myc (human (endogenous in NCI-H929 and MM1S)) (UniProt P01106); experiment: affinity purification with mass spectrometry; co-IP of endogenous mdig or c-myc from NCI-H929 cells, 1D-SDS-PAGE, in-gel digestion, HPLC-ESI-MS/MS, MaxQuant
[2] = biological target: mdig (mineral dust-induced gene) (human (endogenous in NCI-H929 and MM1S)) (UniProt Q8IUF8); experiment: as above

| binding [1] | binding [2] | Substance |
| --- | --- | --- |
| binds | – | mdig (mineral dust-induced gene) (from UniProt Q8IUF8 1-465) |
| – | binds | Rad50 (from UniProt Q92878 1-1312) |
| – | binds | XRCC5 (from UniProt P13010 1-732) |
| – | binds | XRCC6 (from UniProt P12956 1-609) |
